From PubChem BioAssay AID1347426 (Functional Genomics Laboratory (NCATS/FGL), 2020) come the findings set out here.

Screen size: about 31,000 sequences; about 1,400 (4.5%) were called active.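 Rule for the calls: active = median seed-adjusted z-score above 1 or below -1; inactive = the rest.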 The list shows a part of the results.

The assay can be described thus: Novel Modifiers of Survival Motor Neuron (SMN) Protein: Gene Identification via Genome-wide siRNA Screen.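 Note: luminescence tracks full-length SMN protein made from the SMN2 reporter.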 The note with it: HEK293T SMN2-luciferase reporter, siRNA knockdown, 72 h; actives lie on both sides. A digest of the protocol:
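siRNA screen, 10418 genes ×3 siRNAs; 1 pmol/well, lipid reverse transfection into HEK293T SMN2-luc reporter line. 72 h, 37 °C, 5% CO2; ONE-Glo readout. Data: neg-ctrl normalized, log10, MAD; hit = MAD >1.0 or < -1.0.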
For orientation: In a reporter assay the amount or activity of a reporter protein is the signal.
For the sequence CAGAGAAUCCUAAUGAUAATT against LRP10, the median seed-adjusted z-score is inactive: 0.109.

GAUCCUGAGUUAGAGAAGATT against METTL3: the median seed-adjusted z-score was inactive: 0.261.

For the sequence GCUUCACUCAGAUUCCGAUTT against DYNC1I2, the median seed-adjusted z-score was inactive: -0.167.

Consider GGAAUAUGCAUAUCAUGGATT against LNPEP, for which the median seed-adjusted z-score is inactive: -0.386.

Consider GCACUUAUACCAUACUAUUTT against CCNG2, for which the median seed-adjusted z-score was inactive: -0.764.

As to GGCUUCUACUCCUCAGUCATT against HOXC11, the median seed-adjusted z-score is inactive: -0.188.

As for GGAAAUAUCCUAAUGGUUUTT against SLC25A20, the median seed-adjusted z-score is inactive: -0.183.

In the case of GGAAGAAGCUGUUAAAGCATT against VEZF1, the median seed-adjusted z-score was inactive: 0.974.

Regarding CCACCGUCAUGUUUCUCUATT against HOXA13, the median seed-adjusted z-score is inactive: -0.136.

CAGAGAUGCGUGAGAAGUUTT against INSL3: the median seed-adjusted z-score is inactive: -0.037.

For the sequence CUAUCAAAUCUGAACGUGATT against ENOX2, the median seed-adjusted z-score is inactive: 0.0233.

Take GAAUUCCAGUUGUUAGGAATT against DIO1: the median seed-adjusted z-score is inactive: 0.0467.

As for UCGUGUCCCUCUUCCGUAUTT against FZD7, the median seed-adjusted z-score is inactive: -0.159.

For CCACUGUUGGAAUUAAAGATT against AOAH, the median seed-adjusted z-score is inactive: -0.123.

Turning to GCAGCUUGGUUUAACGAAUTT against HOOK1, the median seed-adjusted z-score is inactive: 0.202.

In the case of CCCUUAAUGUUACCUAUGATT against USP24, the median seed-adjusted z-score was inactive: 0.101.

As for ACACUUCUACUGGACCUCATT against CCL22, the median seed-adjusted z-score was inactive: 0.

CCCUGUCUUUAUAUACUGATT against CEPT1: the median seed-adjusted z-score is inactive: 0.328.

In the case of GAAUAUCGAUGGACUUAAATT against NAP1L5, the median seed-adjusted z-score is inactive: 0.115.

On to GCAUCAAGAGCAAACCGAATT against TNFRSF17, for which the median seed-adjusted z-score was inactive: -0.0138.

Take CCACAUAGGUCAGAAACGATT against CLDN17: the median seed-adjusted z-score was inactive: 0.

Turning to GGUAAAACAGGAACGUAUATT against GPR116, the median seed-adjusted z-score is inactive: 0.

Regarding GGAAUUCCAGUAACGAUGATT against RNF149, the median seed-adjusted z-score was inactive: -0.17.

With GGCUCUGAUGUGACCCUUATT against KIRREL, the median seed-adjusted z-score was inactive: -0.74.

On to GCUGCACCCUUAUAAGGAUTT against ACPP, for which the median seed-adjusted z-score is inactive: 0.311.

Consider ACAUCAACGUGGAACGAGATT against EIF4A1, for which the median seed-adjusted z-score was active: -1.05.

GCACUAAGCAAAAACUAGATT against BCAP31: the median seed-adjusted z-score was inactive: 0.277.

GGCCUAGUGUAAUCUCCCATT against ZNF774: the median seed-adjusted z-score is inactive: -0.0834.

On to CAAGCAGCCUGGUACCACATT against PAQR8, for which the median seed-adjusted z-score is inactive: 0.

As to CUAUGGGUCGUGGAACAAATT against HSP90AA1, the median seed-adjusted z-score is inactive: -0.323.

With GUUUUUACGUGACAAAAGATT against TBXAS1, the median seed-adjusted z-score was inactive: 0.

For CAAUUACAUUCGAUAUCAUTT against ZNF20, the median seed-adjusted z-score was inactive: -0.359.

As to GAAGCUAGAACUUACCAAATT against KCNN2, the median seed-adjusted z-score is inactive: -0.0251.

Take GGAUGAUCGAUAAGAACGATT against PDCD6: the median seed-adjusted z-score was inactive: 0.325.

As for CAACAAGAAUAAGAAUUCATT against PLCD1, the median seed-adjusted z-score was inactive: -0.0473.

In the case of CGCAGAAGAUUGUAAGGCATT against RBP4, the median seed-adjusted z-score is inactive: 0.0208.

With GGCAUUUAACAAUCGCUCATT against ZNF781, the median seed-adjusted z-score is inactive: 0.0307.

On to AGUUCUGGAUUGCCUGUGATT against RGS5, for which the median seed-adjusted z-score was inactive: 0.

In the case of GGAGCUCAGAUAAUAGGCATT against NPHS1, the median seed-adjusted z-score was inactive: -0.0505.

As to CAACAGCGAUUUGAUGGAATT against ERO1L, the median seed-adjusted z-score was inactive: -0.251.

For GCCUAUUUUUAAGUCCGAATT against SETD2, the median seed-adjusted z-score was inactive: -0.0192.

With ACGACAACCUGAGCAAGAATT against GJB4, the median seed-adjusted z-score is inactive: 0.131.

Consider GGAGUUCAAUUGUCACCAUTT against IGF1R, for which the median seed-adjusted z-score is inactive: -0.358.

As to CAGGAUAUCUGCUAAGAAATT against FARP2, the median seed-adjusted z-score was inactive: -0.0358.

As for GCCCAGGAAAGAUAAGGCATT against PTH1R, the median seed-adjusted z-score was inactive: -0.521.

Take GCUACUUACCCACUACUAUTT against ACSL6: the median seed-adjusted z-score was inactive: -0.0934.

Consider GGGAUUACCUAGAAAAAUATT against NNMT, for which the median seed-adjusted z-score was inactive: -0.095.

Turning to GGGUACAACUCUUUGAAGATT against MNAT1, the median seed-adjusted z-score was inactive: -0.335.

As for GCGAGAAUCCUGACCACAATT against TSPYL2, the median seed-adjusted z-score was inactive: 0.0187.

GAUGCGAUAUUAAUGGGAATT against SMYD4: the median seed-adjusted z-score was inactive: 0.272.

In the case of GGAGAAACAGUGUACUAUUTT against IL20RB, the median seed-adjusted z-score is inactive: -0.413.

With GCAUAUAGUUGGAAAGAGATT against ASCC1, the median seed-adjusted z-score was inactive: -0.00853.

As to GGACAUCUCUGUGGAAGAATT against ACTN3, the median seed-adjusted z-score was inactive: -0.109.

On to GAUGAUUACCUGCAGAGCATT against MYD88, for which the median seed-adjusted z-score was inactive: -0.365.

Turning to GGAAUUUUUCGGGUGGUUATT against ELF5, the median seed-adjusted z-score is inactive: -0.45.

With AGAUAGCCCUGGAUAAGAATT against STK10, the median seed-adjusted z-score was inactive: 0.0138.

On to GGCAGGAGGUUUAAGAAGUTT against PPP3R2, for which the median seed-adjusted z-score was inactive: -0.143.

As for GCACCGAUCUCAAAGUCCATT against PLA1A, the median seed-adjusted z-score is inactive: 0.197.

As for GCAAUGUUGUGGGACACUATT against SLC30A1, the median seed-adjusted z-score is inactive: 0.314.

For the sequence CCAAGUGCCGAAAAAGGAATT against JUN, the median seed-adjusted z-score is inactive: 0.381.

On to CAAGAAAACUGCGAAUAAATT against STX2, for which the median seed-adjusted z-score is inactive: 0.442.

Consider AGUCCAAUGCAGGUCUUUATT against IGSF1, for which the median seed-adjusted z-score was inactive: 0.258.

On to CGUCAUCGCUCAGACCUUATT against ZNF623, for which the median seed-adjusted z-score is inactive: 0.272.

For AUUUCCUUAUUUACGAGUATT against SCN3B, the median seed-adjusted z-score is inactive: 0.

For the sequence CAGUUGAAGCAAUACACUUTT against RGS6, the median seed-adjusted z-score is inactive: -0.904.

Regarding GGUUACCUUCCUUCAAUUATT against CCRN4L, the median seed-adjusted z-score is inactive: -0.572.

In the case of UCAUUGACCUUAACAAGAATT against PHYHIP, the median seed-adjusted z-score was inactive: 0.18.

GCUCGGAUAUGCUCCAGGATT against TMPRSS5: the median seed-adjusted z-score was active: 1.25.

Regarding GAGAUUCAAAGAAUAGUAATT against RASSF6, the median seed-adjusted z-score is inactive: -0.592.

As to GCCUAGCUCCUACUUAUGATT against DDX25, the median seed-adjusted z-score was inactive: 0.

In the case of GGUGGUACAAUGUCACUGATT against SPINT2, the median seed-adjusted z-score is inactive: 0.00974.

Consider CGCACAGAGUACAGACUUATT against SFRS4, for which the median seed-adjusted z-score is inactive: 0.239.

On to GCUAAUGAAUUGAAACGGATT against MYO1D, for which the median seed-adjusted z-score was inactive: -0.201.

Take GUUGAUCAGCUGUCCCUUUTT against ILVBL: the median seed-adjusted z-score is inactive: 0.343.

Consider CUAUUGGUAUAGUCGAUAATT against GIN1, for which the median seed-adjusted z-score is inactive: -0.0585.

As for CCAUGAGUGUUAUGACGAUTT against BFSP1, the median seed-adjusted z-score is inactive: 0.057.

As to AUAAGGAACUUGAUCCUAUTT against ATP5J, the median seed-adjusted z-score is inactive: 0.242.

As to CUGUCAGAGUGGAGACGUATT against CLK1, the median seed-adjusted z-score was inactive: -0.436.

Regarding CAAACGAUCAGUAAGAAUATT against FLI1, the median seed-adjusted z-score is inactive: 0.255.

Turning to GAAUCGAGAUCAACAGAUATT against ZNF280B, the median seed-adjusted z-score was inactive: 0.113.

CCUGAGCUCUGAGAAACAATT against TRIM43: the median seed-adjusted z-score was inactive: -0.4.

GCAUUACGAUAGCUCAUUATT against FOXL1: the median seed-adjusted z-score is inactive: -0.448.

On to GCAUGUUACUUCGCUUUUUTT against EIF4G2, for which the median seed-adjusted z-score is inactive: -0.386.

With GCACCUCAACUGUUCACAATT against OSBP2, the median seed-adjusted z-score is inactive: -0.568.

Regarding ACAGGAAACUGGUGAUAAATT against SLC16A8, the median seed-adjusted z-score was inactive: 0.192.

As to GGAAGAAUCAUUUUCCUCATT against KLK10, the median seed-adjusted z-score was inactive: -0.902.

As to AGCACACCGUGGUAGUAUATT against DCAKD, the median seed-adjusted z-score is inactive: 0.0872.

Turning to GCAAGACCAAGAUACCGAUTT against ATAD2, the median seed-adjusted z-score was inactive: -0.246.

As to GGACAUGACAGCAACCUUUTT against EGR1, the median seed-adjusted z-score is inactive: 0.0836.

As to AGAUGUCCCUGUUGUUUGATT against RASGRP2, the median seed-adjusted z-score was inactive: -0.00329.

As for AGAUGUUCCCGCAAAUCAATT against SLC6A20, the median seed-adjusted z-score is inactive: -0.306.

As to GCGACUUGGUAGGAGAAAATT against M6PR, the median seed-adjusted z-score was inactive: -0.879.

As to ACAUGCAGAUAUUCAAUGATT against HMOX2, the median seed-adjusted z-score was inactive: 0.

With CAAGCUGUCUAAGUCCAAATT against NOVA1, the median seed-adjusted z-score is inactive: -0.486.

Turning to GCAACUUAGAGUUUGGUGATT against PODN, the median seed-adjusted z-score is inactive: 0.589.

CGUGAGUGCUGUAAAUGCATT against ALG8: the median seed-adjusted z-score was inactive: -0.0604.

Regarding AGGUAUCGGUCAUGAUGAATT against TNK1, the median seed-adjusted z-score was inactive: -0.727.

Regarding CGCUGAGCAGGUCAUCUUUTT against PVRL2, the median seed-adjusted z-score was inactive: -0.367.

On to AGAUUUAUGCUAUCCGUCATT against RPS16, for which the median seed-adjusted z-score is inactive: 0.

As to AGAUGAGCCUAUACAGCGATT against TRIM9, the median seed-adjusted z-score is inactive: -0.437.

CCAUUAGGAUUAACAGUAATT against PHYH: the median seed-adjusted z-score was inactive: 0.208.

Take GGUUUACGUUGUAACCGAATT against PLSCR4: the median seed-adjusted z-score was inactive: -0.543.

Take GCUCAUUAGGUGCUUCAUUTT against AQP8: the median seed-adjusted z-score was inactive: -0.763.

With CACCUUAUCCUGACGUAAATT against MET, the median seed-adjusted z-score is inactive: 0.55.

For the sequence GCCUUCGCAUCUCAGAAUATT against SLC26A11, the median seed-adjusted z-score is inactive: -0.507.

For GGAAUGCGAUUCAAUGUGATT against DECR1, the median seed-adjusted z-score is inactive: 0.0567.

AGAUCACUCUCAUCAAUGATT against CDH23: the median seed-adjusted z-score is inactive: -0.918.
